# Measured values as given in doi:10.1101/2019.12.20.884809.
# By UniProt entry, the sequences of proteins in these tests, tags left out.
# UniProt Q99497: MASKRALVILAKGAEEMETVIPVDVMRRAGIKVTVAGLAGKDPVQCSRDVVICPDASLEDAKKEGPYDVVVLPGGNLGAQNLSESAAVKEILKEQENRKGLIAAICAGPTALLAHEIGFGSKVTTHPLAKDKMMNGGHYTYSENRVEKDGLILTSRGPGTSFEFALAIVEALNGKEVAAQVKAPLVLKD
# These are yes or no findings as the source states them, for the method shown. Binding seen in cells or lysates may run through a third protein. These calls come from enrichment with a bait or labelling near it, and not all partners need be listed.
# B1: pyruvate dehydrogenase (lipoamide) beta (protein, UniProt P11177 31-359)
# chain: LQVTVRDAINQGMDEELERDEKVFLLGEEVAQYDGAYKVSRGLWKKYGDKRIIDTPISEMGFAGIAVGAAMAGLRPICEFMTFNFSMQAIDQVINSAAKTYYMSGGLQPVPIVFRGPNGASAGVAAQHSQCFAAWYGHCPGLKVVSPWNSEDAKGLIKSAIRDNNPVVVLENELMYGVPFEFPPEAQSKDFLIPIGKAKIERQGTHITVVSHSRPVGHCLEAAAVLSKEGVECEVINMRTIRPMDMETIEASVMKTNHLVTVEGGWPQFGVGAEICARIMEGPAFNFLDAPAVRVTGADVPMPYAKILEDNSIPQVKDIIFAIKKTLNI
# B2: HNRNPH3 (protein, UniProt P31942 1-346)
# chain: MDWVMKHNGPNDASDGTVRLRGLPFGCSKEEIVQFFQGLEIVPNGITLTMDYQGRSTGEAFVQFASKEIAENALGKHKERIGHRYIEIFRSSRSEIKGFYDPPRRLLGQRPGPYDRPIGGRGGYYGAGRGSMYDRMRRGGDGYDGGYGGFDDYGGYNNYGYGNDGFDDRMRDGRGMGGHGYGGAGDASSGFHGGHFVHMRGLPFRATENDIANFFSPLNPIRVHIDIGADGRATGEADVEFVTHEDAVAAMSKDKNNMQHRYIELFLNSTPGGGSGMGGSGMGGYGRDGMDNQGGYGSVGRMGMGNNYSGGYGTPDGLGGYGRGGGGSGGYYGQGGMSGGGWRGMY
# B3: KHSRP (protein, UniProt Q92945 1-711)
# chain: MSDYSTGGPPPGPPPPAGGGGGAGGAGGGPPPGPPGAGDRGGGGPGGGGPGGGSAGGPSQPPGGGGPGIRKDAFADAVQRARQIAAKIGGDAATTVNNSTPDFGFGGQKRQLEDGDQPESKKLASQGDSISSQLGPIHPPPRTSMTEEYRVPDGMVGLIIGRGGEQINKIQQDSGCKVQISPDSGGLPERSVSLTGAPESVQKAKMMLDDIVSRGRGGPPGQFHDNANGGQNGTVQEIMIPAGKAGLVIGKGGETIKQLQERAGVKMILIQDGSQNTNVDKPLRIIGDPYKVQQACEMVMDILRERDQGGFGDRNEYGSRIGGGIDVPVPRHSVGVVIGRSGEMIKKIQNDAGVRIQFKQDDGTGPEKIAHIMGPPDRCEHAARIINDLLQSLRSGPPGPPGGPGMPPGGRGRGRGQGNWGPPGGEMTFSIPTHKCGLVIGRGGENVKAINQQTGAFVEISRQLPPNGDPNFKLFIIRGSPQQIDHAKQLIEEKIEGPLCPVGPGPGGPGPAGPMGPFNPGPFNQGPPGAPPHAGGPPPHQYPPQGWGNTYPQWQPPAPHDPSKAAAAAADPNAAWAAYYSHYYQQPPGPVPGPAPAPAAPPAQGEPPQPPPTGQSDYTKAWEEYYKKIGQQPQQPGAPPQQDYTKAWEEYYKKQAQVATGGGPGAPPGSQPDYSAAWAEYYRQQAAYYGQTPGPGGPQPPPTQQGQQQAQ
# B4: SART1 (protein, UniProt O43290 1-800)
# chain: MGSSKKHRGEKEAAGTTAAAGTGGATEQPPRHREHKKHKHRSGGSGGSGGERRKRSRERGGERGSGRRGAEAEARSSTHGRERSQAEPSERRVKREKRDDGYEAAASSKTSSGDASSLSIEETNKLRAKLGLKPLEVNAIKKEAGTKEEPVTADVINPMALRQREELREKLAAAKEKRLLNQKLGKIKTLGEDDPWLDDTAAWIERSRQLQKEKDLAEKRAKLLEEMDQEFGVSTLVEEEFGQRRQDLYSARDLQGLTVEHAIDSFREGETMILTLKDKGVLQEEEDVLVNVNLVDKERAEKNVELRKKKPDYLPYAEDESVDDLAQQKPRSILSKYDEELEGERPHSFRLEQGGTADGLRERELEEIRAKLRLQAQSLSTVGPRLASEYLTPEEMVTFKKTKRRVKKIRKKEKEVVVRADDLLPLGDQTQDGDFGSRLRGRGRRRVSEVEEEKEPVPQPLPSDDTRVENMDISDEEEGGAPPPGSPQVLEEDEAELELQKQLEKGRRLRQLQQLQQLRDSGEKVVEIVKKLESRQRGWEEDEDPERKGAIVFNATSEFCRTLGEIPTYGLAGNREEQEELMDFERDEERSANGGSESDGEENIGWSTVNLDEEKQQQDFSASSTTILDEEPIVNRGLAAALLLCQNKGLLETTVQKVARVKAPNKSLPSAVYCIEDKMAIDDKYSRREEYRGFTQDFKEKDGYKPDVKIEYVDETGRKLTPKEAFRQLSHRFHGKGSGKMKTERRMKKLDEEALLKKMSSSDTPLGTVALLQEKQKAQKTPYIVLSGSGKSMNANTITK
# Target: PARK7/DJ-1 (human (endogenous in primary Tregs/Teffs)) (UniProt Q99497)
# Test: affinity purification with mass spectrometry
row,Binder,binding
1,B1,binds
2,B2,binds
3,B3,binds
4,B4,binds
